This passage reports binding results from PMC12825198.

Amino acid sequences for entries named in this document (tags omitted). A change or cut given only in a name is not applied to a line headed by its entry.
UniProt P05556: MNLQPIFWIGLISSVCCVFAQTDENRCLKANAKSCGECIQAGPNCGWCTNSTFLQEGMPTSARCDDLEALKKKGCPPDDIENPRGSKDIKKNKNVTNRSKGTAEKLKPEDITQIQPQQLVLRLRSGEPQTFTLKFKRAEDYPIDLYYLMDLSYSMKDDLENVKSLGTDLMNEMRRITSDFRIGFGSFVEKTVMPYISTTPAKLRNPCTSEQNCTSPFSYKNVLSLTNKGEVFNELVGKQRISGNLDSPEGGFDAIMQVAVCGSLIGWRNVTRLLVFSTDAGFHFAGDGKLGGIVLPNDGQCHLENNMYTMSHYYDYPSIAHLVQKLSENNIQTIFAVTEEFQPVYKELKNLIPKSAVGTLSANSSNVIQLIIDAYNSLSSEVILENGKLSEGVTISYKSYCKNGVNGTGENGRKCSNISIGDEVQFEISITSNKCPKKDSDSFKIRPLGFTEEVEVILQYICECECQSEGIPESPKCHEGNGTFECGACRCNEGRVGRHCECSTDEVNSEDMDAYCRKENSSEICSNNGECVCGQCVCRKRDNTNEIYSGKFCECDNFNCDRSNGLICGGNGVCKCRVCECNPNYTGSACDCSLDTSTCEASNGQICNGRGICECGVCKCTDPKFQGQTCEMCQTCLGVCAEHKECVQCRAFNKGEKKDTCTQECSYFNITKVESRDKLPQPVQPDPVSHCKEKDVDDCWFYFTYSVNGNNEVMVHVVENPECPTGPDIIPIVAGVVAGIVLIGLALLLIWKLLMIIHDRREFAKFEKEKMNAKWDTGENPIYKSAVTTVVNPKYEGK

For the assay, the target named is T1, peroxidasin (PXDN) (human (endogenous in HK1)) (UniProt Q92626).
T1 sequence: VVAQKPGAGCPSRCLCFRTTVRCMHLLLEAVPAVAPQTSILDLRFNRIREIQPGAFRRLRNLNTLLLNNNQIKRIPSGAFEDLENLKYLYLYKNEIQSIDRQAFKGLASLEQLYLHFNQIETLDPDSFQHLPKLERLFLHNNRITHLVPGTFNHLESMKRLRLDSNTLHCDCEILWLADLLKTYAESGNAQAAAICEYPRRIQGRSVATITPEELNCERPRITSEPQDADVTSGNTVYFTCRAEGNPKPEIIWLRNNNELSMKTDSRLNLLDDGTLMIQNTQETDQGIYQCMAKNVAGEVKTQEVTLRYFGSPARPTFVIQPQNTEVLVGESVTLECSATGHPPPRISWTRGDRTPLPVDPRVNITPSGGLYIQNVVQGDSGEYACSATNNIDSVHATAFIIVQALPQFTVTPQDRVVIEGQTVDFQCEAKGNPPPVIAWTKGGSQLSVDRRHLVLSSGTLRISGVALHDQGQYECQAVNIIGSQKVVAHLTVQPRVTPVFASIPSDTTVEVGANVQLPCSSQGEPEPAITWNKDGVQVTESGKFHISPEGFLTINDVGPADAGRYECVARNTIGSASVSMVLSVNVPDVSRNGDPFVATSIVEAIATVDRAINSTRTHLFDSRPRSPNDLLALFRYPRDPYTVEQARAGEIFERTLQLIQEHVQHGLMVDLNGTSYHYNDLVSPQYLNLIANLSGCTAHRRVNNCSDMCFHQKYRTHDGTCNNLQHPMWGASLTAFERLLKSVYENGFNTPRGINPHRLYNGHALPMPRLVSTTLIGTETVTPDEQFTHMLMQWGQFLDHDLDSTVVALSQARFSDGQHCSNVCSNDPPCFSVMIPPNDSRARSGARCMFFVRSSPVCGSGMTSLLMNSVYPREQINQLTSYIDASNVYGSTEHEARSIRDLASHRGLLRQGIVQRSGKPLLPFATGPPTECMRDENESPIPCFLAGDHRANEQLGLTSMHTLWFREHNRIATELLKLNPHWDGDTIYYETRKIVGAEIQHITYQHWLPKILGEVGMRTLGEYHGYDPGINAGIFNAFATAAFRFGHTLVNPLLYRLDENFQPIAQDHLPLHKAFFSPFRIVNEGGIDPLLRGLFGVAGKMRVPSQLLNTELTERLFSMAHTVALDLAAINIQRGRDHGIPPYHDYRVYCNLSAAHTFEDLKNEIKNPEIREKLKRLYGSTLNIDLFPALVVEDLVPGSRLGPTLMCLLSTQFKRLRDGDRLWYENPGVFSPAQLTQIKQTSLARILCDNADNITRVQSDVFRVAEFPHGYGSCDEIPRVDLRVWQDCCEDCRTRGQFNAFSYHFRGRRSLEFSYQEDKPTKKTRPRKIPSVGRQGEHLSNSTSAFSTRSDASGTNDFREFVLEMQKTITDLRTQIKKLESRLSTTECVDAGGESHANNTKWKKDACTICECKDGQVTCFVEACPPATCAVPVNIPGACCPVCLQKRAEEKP
The experiment in a line: affinity purification with mass spectrometry; Co-IP of PXDN in HK1 cells (versus IgG) followed by mass spectrometry; hits intersected with genes correlated with PXDN expression in four cohorts.

Results are given in words; binding and its absence hold for the method and conditions named. In cells and extracts the contact can be indirect. A yes stands for co-enrichment or nearness to the bait. Other partners may have been found.

As for “ITGB1 (from UniProt P05556 21-798) (receptor)”, the binding entry is recorded as “binds”.
